This note sets out measurements from patent publication US20260097129A1, “ANTIBODY-DRUG CONJUGATE COMPRISING DRUG AND ANTIBODY SPECIFICALLY BINDING TO GRP94 OR ANTIGEN-BINDING FRAGMENT THEREOF” (KOOKMIN UNIVERSITY INDUSTRY ACADEMY COOPERATION FOUNDATION, priority 2022, published 2026).

Protein sequences, listed by entry. Tags and fused reporters are not part of them. Residues count along the entry.
UniProt P14625, residues 22-803: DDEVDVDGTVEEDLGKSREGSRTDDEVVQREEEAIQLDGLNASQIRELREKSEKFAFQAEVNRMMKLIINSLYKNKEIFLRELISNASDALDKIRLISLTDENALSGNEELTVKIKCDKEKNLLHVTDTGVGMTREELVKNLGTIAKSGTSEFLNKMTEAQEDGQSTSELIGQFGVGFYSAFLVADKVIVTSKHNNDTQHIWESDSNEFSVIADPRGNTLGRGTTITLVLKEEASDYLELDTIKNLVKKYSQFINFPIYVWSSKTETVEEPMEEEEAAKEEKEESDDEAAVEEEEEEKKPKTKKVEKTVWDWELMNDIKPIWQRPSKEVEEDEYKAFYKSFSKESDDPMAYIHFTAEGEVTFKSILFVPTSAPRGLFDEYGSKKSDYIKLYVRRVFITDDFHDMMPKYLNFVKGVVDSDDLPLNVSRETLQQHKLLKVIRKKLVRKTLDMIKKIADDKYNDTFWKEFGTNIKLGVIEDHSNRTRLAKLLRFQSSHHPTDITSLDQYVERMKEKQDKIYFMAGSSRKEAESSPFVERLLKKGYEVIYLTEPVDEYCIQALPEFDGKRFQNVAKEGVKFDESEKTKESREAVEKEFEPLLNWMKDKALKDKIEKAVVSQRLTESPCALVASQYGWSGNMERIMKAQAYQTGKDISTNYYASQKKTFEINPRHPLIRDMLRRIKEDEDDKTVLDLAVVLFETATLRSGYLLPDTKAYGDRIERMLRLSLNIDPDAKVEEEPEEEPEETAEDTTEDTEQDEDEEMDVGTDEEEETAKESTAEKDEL
UniProt P08113, residues 22-802: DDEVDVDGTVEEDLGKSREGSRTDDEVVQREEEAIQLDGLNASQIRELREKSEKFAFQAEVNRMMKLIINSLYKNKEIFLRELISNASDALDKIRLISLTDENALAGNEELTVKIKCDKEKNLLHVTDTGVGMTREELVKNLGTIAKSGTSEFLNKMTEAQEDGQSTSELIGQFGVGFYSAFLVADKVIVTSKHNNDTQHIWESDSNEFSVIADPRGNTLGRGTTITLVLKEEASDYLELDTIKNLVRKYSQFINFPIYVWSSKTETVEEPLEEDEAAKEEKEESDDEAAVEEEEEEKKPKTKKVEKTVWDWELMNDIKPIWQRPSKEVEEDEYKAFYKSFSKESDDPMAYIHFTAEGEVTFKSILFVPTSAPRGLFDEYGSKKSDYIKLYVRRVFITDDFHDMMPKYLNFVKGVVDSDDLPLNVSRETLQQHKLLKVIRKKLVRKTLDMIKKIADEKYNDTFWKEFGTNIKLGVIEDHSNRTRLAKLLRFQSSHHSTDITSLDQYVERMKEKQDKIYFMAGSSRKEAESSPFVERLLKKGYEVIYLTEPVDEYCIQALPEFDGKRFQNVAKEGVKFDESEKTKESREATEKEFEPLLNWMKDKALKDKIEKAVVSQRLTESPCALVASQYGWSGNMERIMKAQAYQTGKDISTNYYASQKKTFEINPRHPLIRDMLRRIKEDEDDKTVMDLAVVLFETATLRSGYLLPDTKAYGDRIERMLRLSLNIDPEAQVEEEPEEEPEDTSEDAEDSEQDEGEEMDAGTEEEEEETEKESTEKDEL

Assay [1] addresses recombinant human GRP94 (human) (UniProt P14625). Description: ELISA, immobilized rhGRP94.
For assay [2], the target named is recombinant mouse GRP94 (mouse) (UniProt P08113). The assay is described as follows: ELISA, immobilized rmGRP94.

Results are given in words; binding and its absence hold for the method and conditions named. Some results given as binding are weak or reduced against the parent protein; the word gives no strength.

B1: K101.1 (antibody, IgG1, V domains shown)
VH: EVQLLESGGGLVQPGGSLRLSCAASGFTFSNYSMSWVRQAPGKGLEWVSGIYYGSGNKYYADSVKGRFTISRDNSKNTLYLQMNSLRAEDTAVYYCAKNLASFDYWGQGTLVTVSS
VL: QSVLTQPPSASGTPGQRVTISCSGSSSNIGSNSVNWYQQLPGTAPKLLIYSNSHRPSGVPDRFSGSKSGTSASLAISGLRSEDEADYYCGTWDSSLSGYVFGGGTKLTVL
For the molecule B1, the binding entry in assay [1] and in assay [2] was “binds” each time.
